Data: patent publication US20110020373A1
Results are given in words; binding and its absence hold for the method and conditions named. Some results given as binding are weak or reduced against the parent protein; the word gives no strength. Where a sequence is shown, tags or fusion partners need not be part of it.

Protein sequences, listed by entry. Tags and fused reporters are not part of them. Lines headed by an entry give the natural chain unless they say otherwise; changes in a name come on top. Residues count along the entry.
UniProt P12319, residues 26-257: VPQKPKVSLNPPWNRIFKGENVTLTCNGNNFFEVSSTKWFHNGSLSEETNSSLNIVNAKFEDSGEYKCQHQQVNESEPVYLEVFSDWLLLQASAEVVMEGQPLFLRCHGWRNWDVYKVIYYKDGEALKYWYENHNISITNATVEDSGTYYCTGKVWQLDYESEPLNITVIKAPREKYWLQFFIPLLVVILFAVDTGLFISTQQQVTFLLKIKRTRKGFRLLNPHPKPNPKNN
UniProt Q01362: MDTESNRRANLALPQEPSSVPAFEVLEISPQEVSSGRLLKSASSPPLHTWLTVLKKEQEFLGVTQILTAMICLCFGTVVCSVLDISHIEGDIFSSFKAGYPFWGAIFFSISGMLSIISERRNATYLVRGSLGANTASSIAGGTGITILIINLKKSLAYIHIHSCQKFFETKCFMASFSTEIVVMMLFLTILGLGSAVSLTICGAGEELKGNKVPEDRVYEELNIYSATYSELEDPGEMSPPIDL
UniProt P30273: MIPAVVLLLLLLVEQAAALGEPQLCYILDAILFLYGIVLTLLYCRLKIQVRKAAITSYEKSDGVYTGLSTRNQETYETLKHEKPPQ

Legend:
[1] = target: human FcεRIα chain (human) (UniProt P12319); test: flow cytometry on 3D10 cells (legend of FIG. 4F)
[2] = target: T1, entire FcεRI receptor complex on Ku812 cells (human) (UniProt P12319+Q01362+P30273); test: flow cytometry on Ku812 cells, detected with FITC goat anti-human epsilon chain
[3] = target: T1, entire FcεRI receptor complex on Ku812 cells (human); test: flow cytometry on Ku812 cells (legend of FIG. 4G)
[4] = target: human FcεRIα chain (human) (UniProt P12319); test: flow cytometry on 3D10 cells, detected with FITC goat anti-human epsilon chain

binding [1]: binds
binding [2]: binds
binding [3]: binds
binding [4]: binds
B1: EPL fusion protein (Fc Epsilon-PolyLysine protein) (protein)
chain: FTPPTVKILQSSCDGGGHFPPTIQLLCLVSGYTPGTINITWLEDGQVMDVDLSTASTTQEGELASTQSELTLSQKHWLSDRTYTCQVTYQGHTFEDSTKKCADSNPRGVSAYLSRPSPFDLFIRKSPTITCLVVDLAPSKGTVNLTWSRASGKPVNHSTRKEEKQRNGTLTVTSTLPVGTRDWIEGETYQCRVTHPHLPRALMRSTTKTSGPRAAPEVYAFATPEWPGSRDKRTLACLIQNFMPEDISVQWLHNEVQLPDARHSTTQPRKTKGSGFFVFSRLEVTRAEWEQKDEFICRAVHEAASPSQTVQRAVSVNPGKKKKKKKKKKKKKKKKKKKKKKKKKKKKKKKKKKKKKKKKKKKKKKKKKKKKKKKKKKKKK
